{"source": "PubChem BioAssay AID272", "about": "(DTP/NCI, 2004)", "tested_on": "Lewis lung carcinoma i.m., BDF1 mice, T/C %", "test": "NCI In Vivo Anticancer Drug Screen. Data for tumor model Lewis Lung Carcinoma (intramuscular) in B6D2F1 (BDF1) mice", "procedure,_shortened": "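Transplantable tumour model; readout survival or tumour size; value = treated (T) / vehicle control (C).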", "note": "The list does not hold the whole screen: it is rich in T/C values a quarter to a half above the control, in often repeated tests (any T/C) and in doses without a T/C. Further doses and runs are listed elsewhere. T/C: endpoint of the treated group in % of that of the vehicle group. Schedules are NCI's codes, taken here to give the interval after Q, in days (D) or hours (H), and the number of doses after X. Signs of the kind (2×) say how often a value occurs here. Some T/C values are followed by the survivors on the day toxicity was checked, most often the fifth; without a count, all were alive then. Some entries were tested several times; the values are given in rising order. Some entries give survivors of the animals treated and no T/C: the source files T/C as zero there, which appears to mark a toxic dose or a test without result, not a measured value. Counts of survivors are from the toxicity check (mostly the fifth day) where no day follows; animals may have died later. For survival time, the PubChem record calls one and a half times the control and up active, and a quarter to a half above the control has no call in these data; cut-offs in other NCI protocols can differ."}
{"smiles": "Cc1c(N)nc([C@H](CC(N)=O)NC[C@H](N)C(N)=O)nc1C(=O)N[C@H](C(=O)N[C@H](C)[C@@H](O)[C@H](C)C(=O)N[C@H](C(=O)NCCc1nc(-c2nc(C(=O)NCCC[S+](C)C)cs2)cs1)[C@@H](C)O)C(OC1OC(CO)C(O)C(O)C1OC1OC(CO)C(O)C(OC(N)=O)C1O)c1cnc[nH]1", "note": "(some centres undefined)", "values": [{"measurement": "T/C", "setting": "T/C endpoint: mean tumor weight, dose: 3.0 mg/kg/injection, schedule: Q01DX009 (ip), vehicle: saline, evaluated on day 10, higher T/C = larger tumour", "value": "17 and 223 % of control"}, {"measurement": "T/C", "setting": "T/C endpoint: mean tumor weight, dose: 3.0 mg/kg/injection, schedule: Q01DX009 (ip), vehicle: saline, evaluated on day 12, higher T/C = larger tumour", "value": "34 % of control (2×)"}, {"measurement": "survivor count", "setting": "T/C endpoint: mean tumor weight, dose: 3.0 mg/kg/injection, schedule: Q01DX009 (ip), vehicle: saline, higher T/C = larger tumour", "value": "4 of 8"}, {"measurement": "T/C", "setting": "T/C endpoint: mean tumor weight, dose: 5.0 mg/kg/injection, schedule: Q01DX009 (ip), vehicle: saline, evaluated on day 10, higher T/C = larger tumour", "value": "11, 47, 141 % of control"}, {"measurement": "T/C", "setting": "T/C endpoint: mean tumor weight, dose: 5.0 mg/kg/injection, schedule: Q01DX009 (ip), vehicle: saline, evaluated on day 12, higher T/C = larger tumour", "value": "11, 18 [7 of 8 alive], 22, 24, 29 % of control"}, {"measurement": "T/C", "setting": "T/C endpoint: mean tumor weight, dose: 8.4 mg/kg/injection, schedule: Q01DX009 (ip), vehicle: saline, evaluated on day 10, higher T/C = larger tumour", "value": "12, 14, 160 % of control"}, {"measurement": "T/C", "setting": "T/C endpoint: mean tumor weight, dose: 8.4 mg/kg/injection, schedule: Q01DX009 (ip), vehicle: saline, evaluated on day 12, higher T/C = larger tumour", "value": "5, 6 (2×), 11 [7 of 8 alive], 19 % of control [7 of 8 alive]"}, {"measurement": "T/C", "setting": "T/C endpoint: mean tumor weight, dose: 14.0 mg/kg/injection, schedule: Q01DX009 (ip), vehicle: saline, evaluated on day 12, higher T/C = larger tumour", "value": "4 [6 of 7 alive] and 4 % of control [7 of 8 alive]"}, {"measurement": "T/C", "setting": "T/C endpoint: mean tumor weight, dose: 23.0 mg/kg/injection, schedule: Q01DX009 (ip), vehicle: saline, evaluated on day 10, higher T/C = larger tumour", "value": "5 [7 of 8 alive], 7 [7 of 8 alive], 97 % of control [6 of 7 alive]"}, {"measurement": "T/C", "setting": "T/C endpoint: mean tumor weight, dose: 23.0 mg/kg/injection, schedule: Q01DX009 (ip), vehicle: saline, evaluated on day 12, higher T/C = larger tumour", "value": "5 % of control [6 of 8 alive]"}, {"measurement": "survivor count", "setting": "T/C endpoint: mean tumor weight, dose: 65.0 mg/kg/injection, schedule: Q04DX003 (ip), vehicle: saline, higher T/C = larger tumour", "value": "5 of 8"}, {"measurement": "survivor count", "setting": "T/C endpoint: mean tumor weight, dose: 73.0 mg/kg/injection, schedule: Q01DX001 (ip), vehicle: saline, higher T/C = larger tumour", "value": "4 of 8"}, {"measurement": "survivor count", "setting": "T/C endpoint: mean tumor weight, dose: 80.0 mg/kg/injection, schedule: Q04DX003 (ip), vehicle: saline, higher T/C = larger tumour", "value": "0 of 4"}, {"measurement": "T/C", "setting": "T/C endpoint: median survival time, dose: 1.8 mg/kg/injection, schedule: Q09DX009 (ip), vehicle: saline, evaluated on day 10, higher T/C = longer survival", "value": "132 % of control"}, {"measurement": "T/C", "setting": "T/C endpoint: median survival time, dose: 1.8 mg/kg/injection, schedule: Q09DX009 (ip), vehicle: saline, evaluated on day 50, higher T/C = longer survival", "value": "132 % of control"}, {"measurement": "T/C", "setting": "T/C endpoint: median survival time, dose: 2.0 mg/kg/injection, schedule: Q01DX011 (ip), vehicle: saline, higher T/C = longer survival", "value": "129 % of control"}, {"measurement": "T/C", "setting": "T/C endpoint: median survival time, dose: 2.3 mg/kg/injection, schedule: Q01DX011 (ip), vehicle: saline, higher T/C = longer survival", "value": "143 % of control"}, {"measurement": "T/C", "setting": "T/C endpoint: median survival time, dose: 3.0 mg/kg/injection, schedule: Q01DX009 (ip), vehicle: saline, evaluated on day 11, higher T/C = longer survival", "value": "140 % of control"}, {"measurement": "T/C", "setting": "T/C endpoint: median survival time, dose: 3.0 mg/kg/injection, schedule: Q01DX009 (ip), vehicle: saline, evaluated on day 12, higher T/C = longer survival", "value": "134 % of control"}, {"measurement": "T/C", "setting": "T/C endpoint: median survival time, dose: 3.0 mg/kg/injection, schedule: Q01DX009 (ip), vehicle: saline, evaluated on day 14, higher T/C = longer survival", "value": "106 % of control"}, {"measurement": "T/C", "setting": "T/C endpoint: median survival time, dose: 3.0 mg/kg/injection, schedule: Q01DX009 (ip), vehicle: saline, evaluated on day 43, higher T/C = longer survival", "value": "132 % of control"}, {"measurement": "T/C", "setting": "T/C endpoint: median survival time, dose: 3.0 mg/kg/injection, schedule: Q01DX009 (ip), vehicle: saline, evaluated on day 52, higher T/C = longer survival", "value": "106 % of control"}, {"measurement": "survivor count", "setting": "T/C endpoint: median survival time, dose: 3.0 mg/kg/injection, schedule: Q01DX009 (ip), vehicle: saline, higher T/C = longer survival", "value": "4 of 8"}, {"measurement": "T/C", "setting": "T/C endpoint: median survival time, dose: 3.9 mg/kg/injection, schedule: Q01DX011 (ip), vehicle: saline, higher T/C = longer survival", "value": "131 % of control"}, {"measurement": "T/C", "setting": "T/C endpoint: median survival time, dose: 4.0 mg/kg/injection, schedule: Q01DX009 (ip), vehicle: water, evaluated on day 30, higher T/C = longer survival", "value": "119 % of control"}, {"measurement": "T/C", "setting": "T/C endpoint: median survival time, dose: 4.0 mg/kg/injection, schedule: Q01DX009 (ip), vehicle: water, evaluated on day 45, higher T/C = longer survival", "value": "117 and 124 % of control"}, {"measurement": "T/C", "setting": "T/C endpoint: median survival time, dose: 4.0 mg/kg/injection, schedule: Q01DX009 (ip), vehicle: water, evaluated on day 60, higher T/C = longer survival", "value": "135 % of control"}, {"measurement": "T/C", "setting": "T/C endpoint: median survival time, dose: 4.0 mg/kg/injection, schedule: Q01DX011 (ip), vehicle: saline, higher T/C = longer survival", "value": "134 and 144 % of control"}, {"measurement": "T/C", "setting": "T/C endpoint: median survival time, dose: 5.0 mg/kg/injection, schedule: Q01DX009 (ip), vehicle: saline, evaluated on day 10, higher T/C = longer survival", "value": "106 % of control"}, {"measurement": "T/C", "setting": "T/C endpoint: median survival time, dose: 5.0 mg/kg/injection, schedule: Q01DX009 (ip), vehicle: saline, evaluated on day 11, higher T/C = longer survival", "value": "117 % of control"}, {"measurement": "T/C", "setting": "T/C endpoint: median survival time, dose: 5.0 mg/kg/injection, schedule: Q01DX009 (ip), vehicle: saline, evaluated on day 12, higher T/C = longer survival", "value": "103 and 131 % of control"}, {"measurement": "T/C", "setting": "T/C endpoint: median survival time, dose: 5.0 mg/kg/injection, schedule: Q01DX009 (ip), vehicle: saline, evaluated on day 14, higher T/C = longer survival", "value": "132 % of control"}, {"measurement": "T/C", "setting": "T/C endpoint: median survival time, dose: 5.0 mg/kg/injection, schedule: Q01DX009 (ip), vehicle: saline, evaluated on day 41, higher T/C = longer survival", "value": "104 % of control"}, {"measurement": "T/C", "setting": "T/C endpoint: median survival time, dose: 5.0 mg/kg/injection, schedule: Q01DX009 (ip), vehicle: saline, evaluated on day 43, higher T/C = longer survival", "value": "102 % of control"}, {"measurement": "T/C", "setting": "T/C endpoint: median survival time, dose: 5.0 mg/kg/injection, schedule: Q01DX009 (ip), vehicle: saline, evaluated on day 45, higher T/C = longer survival", "value": "130 % of control [7 of 8 alive]"}, {"measurement": "T/C", "setting": "T/C endpoint: median survival time, dose: 5.0 mg/kg/injection, schedule: Q01DX009 (ip), vehicle: saline, evaluated on day 48, higher T/C = longer survival", "value": "143 and 165 % of control"}, {"measurement": "T/C", "setting": "T/C endpoint: median survival time, dose: 5.0 mg/kg/injection, schedule: Q01DX009 (ip), vehicle: saline, evaluated on day 52, higher T/C = longer survival", "value": "132 % of control"}, {"measurement": "T/C", "setting": "T/C endpoint: median survival time, dose: 6.0 mg/kg/injection, schedule: Q01DX011 (ip), vehicle: saline, higher T/C = longer survival", "value": "140 % of control"}, {"measurement": "T/C", "setting": "T/C endpoint: median survival time, dose: 8.0 mg/kg/injection, schedule: Q01DX009 (ip), vehicle: saline, higher T/C = longer survival", "value": "145 % of control"}, {"measurement": "T/C", "setting": "T/C endpoint: median survival time, dose: 8.0 mg/kg/injection, schedule: Q01DX009 (ip), vehicle: water, evaluated on day 30, higher T/C = longer survival", "value": "120 % of control"}, {"measurement": "T/C", "setting": "T/C endpoint: median survival time, dose: 8.0 mg/kg/injection, schedule: Q01DX009 (ip), vehicle: water, evaluated on day 45, higher T/C = longer survival", "value": "133 and 189 % of control"}, {"measurement": "T/C", "setting": "T/C endpoint: median survival time, dose: 8.0 mg/kg/injection, schedule: Q01DX009 (ip), vehicle: water, evaluated on day 60, higher T/C = longer survival", "value": "124 % of control"}, {"measurement": "T/C", "setting": "T/C endpoint: median survival time, dose: 8.0 mg/kg/injection, schedule: Q01DX011 (ip), vehicle: saline, higher T/C = longer survival", "value": "131 % of control [9 of 10 alive]"}, {"measurement": "T/C", "setting": "T/C endpoint: median survival time, dose: 8.4 mg/kg/injection, schedule: Q01DX009 (ip), vehicle: saline, evaluated on day 10, higher T/C = longer survival", "value": "135 % of control"}, {"measurement": "T/C", "setting": "T/C endpoint: median survival time, dose: 8.4 mg/kg/injection, schedule: Q01DX009 (ip), vehicle: saline, evaluated on day 11, higher T/C = longer survival", "value": "160 % of control"}, {"measurement": "T/C", "setting": "T/C endpoint: median survival time, dose: 8.4 mg/kg/injection, schedule: Q01DX009 (ip), vehicle: saline, evaluated on day 12, higher T/C = longer survival", "value": "143 and 151 % of control"}, {"measurement": "T/C", "setting": "T/C endpoint: median survival time, dose: 8.4 mg/kg/injection, schedule: Q01DX009 (ip), vehicle: saline, evaluated on day 14, higher T/C = longer survival", "value": "146 % of control"}, {"measurement": "T/C", "setting": "T/C endpoint: median survival time, dose: 8.4 mg/kg/injection, schedule: Q01DX009 (ip), vehicle: saline, evaluated on day 41, higher T/C = longer survival", "value": "136 % of control"}, {"measurement": "T/C", "setting": "T/C endpoint: median survival time, dose: 8.4 mg/kg/injection, schedule: Q01DX009 (ip), vehicle: saline, evaluated on day 45, higher T/C = longer survival", "value": "144 % of control"}]}
